# Laboratory results reported in PubChem BioAssay AID1259354 (Paczesny and Yang Labs, IUPUI and University of Michigan, 2018).
# Chains of the proteins cited; added tags and fusions are not shown. Lines headed by an entry give the natural chain unless they say otherwise; changes in a name come on top.
# UniProt Q01638: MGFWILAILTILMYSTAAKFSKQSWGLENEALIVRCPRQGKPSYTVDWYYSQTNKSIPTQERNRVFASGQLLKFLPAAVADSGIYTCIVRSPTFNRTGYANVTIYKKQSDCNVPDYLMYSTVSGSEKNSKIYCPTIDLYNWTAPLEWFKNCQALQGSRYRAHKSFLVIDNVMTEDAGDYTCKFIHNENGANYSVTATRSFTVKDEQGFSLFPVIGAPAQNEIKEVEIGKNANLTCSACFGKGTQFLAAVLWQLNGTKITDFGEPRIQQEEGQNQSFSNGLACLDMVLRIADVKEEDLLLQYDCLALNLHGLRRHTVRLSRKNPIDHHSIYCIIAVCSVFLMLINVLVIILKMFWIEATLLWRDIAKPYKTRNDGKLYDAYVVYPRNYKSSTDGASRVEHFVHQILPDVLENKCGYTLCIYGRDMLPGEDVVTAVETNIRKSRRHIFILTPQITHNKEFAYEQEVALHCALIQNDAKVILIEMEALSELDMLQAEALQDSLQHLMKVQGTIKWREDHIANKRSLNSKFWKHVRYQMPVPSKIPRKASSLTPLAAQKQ
# In all, about 78,000 compounds went through this assay and about 1,800 (2.3%) were called active. Inconclusive results, whose numbers are uncertain, are shown with a selection of clear calls. Cut-off read from the data, not from the text of the source: active = inhibition above about 30%; inconclusive = mostly about 10% to 28%; inactive = weaker than that.
# Molecular target: Interleukin-1 receptor-like 1 (Homo sapiens) (UniProt Q01638)
# Assay: blocks human ST2 binding to IL-33, primary screen, biochemical, AlphaLISA (AID 1259354)
# Settings: AlphaLISA ST2-Fc/biotin-IL-33 interaction, 1 h; at 17 µM, hits give high values
row,Structure (SMILES),inhibition
1,Cc1n[nH]c(C)c1CNC(=O)CC(c1cccc(Cl)c1)c1ccccc1O (stereo not given),inactive
2,CCOC(=O)C1=C(N)OC2=C(C(=O)CC(c3ccccc3)C2)C1c1cccc(Br)c1 (stereo not given),inconclusive: 11%
3,C=CCN1C(=Nc2cccnc2)SCC1(O)c1ccc(OC)c(OC)c1 (stereo not given),inconclusive: 16%
4,CNS(=O)(=O)c1ccc(CN2CC3(CCNCC3)CC2C(=O)O)cc1 (stereo not given),inconclusive: 11%
5,OC(c1ccccc1)c1cn(C2CCN(Cc3cnc4ccccc4c3)CC2)nn1 (stereo not given),inconclusive: 12%
6,Cc1ccc(CN(CC(N)=O)S(=O)(=O)c2ccc(C)cc2)cc1,inactive
7,Cc1cccc(Oc2coc3cc(OC(C)C(=O)OCCC(C)C)ccc3c2=O)c1 (stereo not given),inconclusive: 10%
8,CCC(C(=O)NCc1snnc1C)n1cc(C(C)=O)c2ccccc21 (stereo not given),inconclusive: 19%
9,Cc1ccc(N=Cc2ccc(Cl)c(Cl)c2)c(O)c1,inconclusive: 25%
10,C[C@H](Cc1ccc(O)c(O)c1)[C@@H](C)Cc1ccc(O)c(O)c1,inconclusive: 25%
11,Cc1ccc(-c2ccc(C)cc2N)c(N)c1,inconclusive: 21%
12,COc1cc(NC(=O)c2cc(-c3cccs3)on2)c(OC)cc1Cl,inconclusive: 10%
13,Cc1ccc(Cn2c(CNS(=O)(=O)c3ccc(C)c(C)c3)nc3cccnc32)cc1,inconclusive: 10%
14,Cc1cccc(-c2noc([C@@H]3Cc4nc[nH]c4CN3C(=O)C3CCCCC3)n2)c1,inconclusive: 14%
15,Cc1ccc(C(=O)N2CCN(S(=O)(=O)c3cc4c5c(c3)CCN5C(=O)CC4)CC2)cc1,inactive
16,COc1ccc(-c2csc(/C(C#N)=C\c3ccc(F)cc3)n2)cc1OC,inactive
17,CCN(CC)C(=O)Cn1cnc2sc(C(=O)Nc3ccc(C(F)(F)F)cc3)c(C)c2c1=O,inactive
18,COc1ccccc1OCC(=O)Nc1c(C(=O)Nc2cccc(F)c2)oc2ccccc12,inactive
19,Cc1ccc(C2C(C(=O)c3ccco3)=C(O)C(=O)N2CCN(C)C)o1 (stereo not given),inconclusive: 12%
20,CCOc1ccccc1NC(=O)N(Cc1ccncc1)C1CCN(C)CC1,inactive

row,Structure (SMILES),inhibition
1,NCCc1ccc(O)c(O)c1,inconclusive: 21%
2,Oc1ccccc1C(Nc1ccccn1)c1ccc2cccnc2c1O (stereo not given),inconclusive: 17%
3,O=C1CC(=O)Nc2cc(S(=O)(=O)Nc3ccc(F)c(Cl)c3)ccc2N1,inactive
4,CCN(CC)S(=O)(=O)c1ccc2oc(C(=O)NC3CCC(C)CC3)c(C)c2c1 (stereo not given),inactive
5,CN(C)C(C(=O)N1C[C@@H]2[C@H](C1)[C@H]1CC[C@@H]2O1)c1ccc2c(c1)OCO2 (stereo not given in full),active: 50%
6,Cn1c(=O)[nH]c(=O)c2c1nc(Br)n2Cc1ccccc1Cl,inconclusive: 14%
7,Cc1ccccc1NCN1C(=O)C(=O)c2ccccc21,inconclusive: 18%
8,Cc1cc(NC(=O)c2ccccc2[N+](=O)[O-])ccc1NC(=O)c1cc2ccccc2o1,inconclusive: 13%
9,O=C(NC1CC1)C1CCN(C2CCN(C(=O)C#Cc3ccccc3)CC2)CC1,inconclusive: 25%
10,N#Cc1cccc(NC(=O)N[C@H]2[C@H](O)[C@@H](N3CCCCC3)[C@@H]3OC[C@H]2O3)c1,inconclusive: 21%
11,Cc1ccc(N=C2c3ccccc3C(=O)C2[N+](=O)[O-])cc1C (stereo not given),inconclusive: 24%
12,c1ccc(-c2nc[nH]c2-c2cccn2-c2ncccn2)cc1,inconclusive: 13%
13,COc1ccc(Cl)cc1NC(=O)c1cccc(Cl)c1Cl,inactive
14,COc1ccccc1Oc1ncccc1CNCc1ccccc1Cl,inactive
15,O=C(CSc1nc2c([nH]c3ccccc32)c(=O)n1-c1cccc(Cl)c1)N1CCOCC1,active: 35%
16,O=C1NC(c2cccs2)Nc2sc3c(c21)CCCC3 (stereo not given),inconclusive: 24%
17,CCCCN(CC)S(=O)(=O)c1ccc(C(=O)Nc2nnc(CSC)o2)cc1,inactive
18,CCC(=O)NC(N)=Nc1nc(C)c2cc(C)ccc2n1,inactive
19,O=C(Nc1ccc(C(=O)NC2CCCCC2)cc1)c1cncc(Br)c1,inconclusive: 23%
20,O=C(Nc1ccccc1)C1[C@H](C(=O)O)[C@H]2C=C[C@@H]1C21CC1 (stereo not given in full),inactive

# Some of the entries so far, tab-delimited:
row	Structure (SMILES)	inhibition
1	NCCc1ccc(O)c(O)c1	inconclusive: 21%
2	Oc1ccccc1C(Nc1ccccn1)c1ccc2cccnc2c1O (stereo not given)	inconclusive: 17%
3	O=C1CC(=O)Nc2cc(S(=O)(=O)Nc3ccc(F)c(Cl)c3)ccc2N1	inactive
4	CCN(CC)S(=O)(=O)c1ccc2oc(C(=O)NC3CCC(C)CC3)c(C)c2c1 (stereo not given)	inactive

# (further entries)

row,Structure (SMILES),inhibition
1,COc1ccc(C2Nc3ccccc3NC3=C2C(=O)CCC3)cc1OC (stereo not given),inconclusive: 10%
2,N/C(=N/OC(=O)c1ccccc1Cl)c1ncon1,inconclusive: 10%
3,Cc1ccc2nc(-c3cccnc3)c(Nc3ccc(Cl)cc3)n2c1,inconclusive: 12%
4,Cn1c(OCc2cccnc2)nc2c1c(=O)n(Cc1ccc(Br)cc1)c(=O)n2C,inconclusive: 27%
5,C=CCOc1ccc(/C=C2\C(=O)NN(c3cccc(Br)c3)C2=O)cc1OC,active: 34%
6,COc1ccc(/C=C2\SC(=O)N(CC(=O)Nc3cccc(O)c3)C2=O)cc1OC,inconclusive: 12%
7,Cc1c(Cl)cccc1NC(=O)Cc1ccccc1,inconclusive: 12%
8,COc1ccc(/C=C2\SC=C(c3ccc(F)cc3)N=NC2=N)cc1,inconclusive: 21%
9,COc1cccc(-c2cn3c4c(=O)n(C)c(=O)n(C)c4nc3n2-c2ccccc2)c1,inconclusive: 17%
10,COc1ccc2c(c1)C(=O)CC(O)(C(F)(F)F)O2 (stereo not given),inconclusive: 18%
11,CCn1nc(CC(C)C)cc1C(=O)NCc1nnc2n1CCC2,inconclusive: 16%
12,COc1ccc(CC(=O)N2CCN(S(=O)(=O)c3cc4c5c(c3)CCN5C(=O)CC4)CC2)cc1OC,inconclusive: 17%
13,Cc1ccc(S(=O)(=O)NCCCSC2CCCCC2)cc1,inconclusive: 11%
14,O=c1c2c(nc(SCc3ccccc3F)n1-c1ccc(Cl)cc1)CCS2,inactive
15,Cc1cccnc1[C@H](C)Nc1nc(-c2cccnc2)nc2c1cnn2C,inconclusive: 12%
16,O=C(CS(=O)(=O)c1cccc2nsnc12)Nc1cccc(F)c1,inconclusive: 10%
17,C=C(C)COc1ccccc1C(=O)N1CCc2[nH]nc(C(C)C)c2C1,inconclusive: 12%
18,Cc1ccc(C(=O)Nc2cccc(NC(=O)c3ccco3)c2)c(Cl)c1,inactive
19,COC(=O)[C@H]1C[C@@H](O)CCN1CC1CCOCC1,inconclusive: 23%
20,COc1ccc(CN(C)S(=O)(=O)NCc2ccccc2)c2cccnc12,inconclusive: 12%
